Results published in patent publication US6867008.
These are yes or no findings as the source states them, for the method shown. For part of these data: In cells and extracts the contact can be indirect. Some binding calls cover weakened binding; strength is not graded here. Values belong to the substance of their own block, whether it stands above or below them.

Sequences of proteins named here, by UniProt entry; tags and fusion partners are left off. A change or cut given only in a name is not applied to a line headed by its entry. Residues count along the entry.
UniProt P62195: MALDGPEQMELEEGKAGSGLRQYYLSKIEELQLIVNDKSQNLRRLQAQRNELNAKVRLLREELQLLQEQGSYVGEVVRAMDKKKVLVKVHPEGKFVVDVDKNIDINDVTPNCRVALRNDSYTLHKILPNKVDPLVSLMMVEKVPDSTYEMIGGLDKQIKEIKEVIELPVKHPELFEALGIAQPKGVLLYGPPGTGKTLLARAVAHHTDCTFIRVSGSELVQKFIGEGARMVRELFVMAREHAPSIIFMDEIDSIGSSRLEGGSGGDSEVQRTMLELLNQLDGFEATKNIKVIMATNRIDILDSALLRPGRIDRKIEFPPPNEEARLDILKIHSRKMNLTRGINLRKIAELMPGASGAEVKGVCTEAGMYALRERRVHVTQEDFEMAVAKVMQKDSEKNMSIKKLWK
UniProt O08537, residues 46-530: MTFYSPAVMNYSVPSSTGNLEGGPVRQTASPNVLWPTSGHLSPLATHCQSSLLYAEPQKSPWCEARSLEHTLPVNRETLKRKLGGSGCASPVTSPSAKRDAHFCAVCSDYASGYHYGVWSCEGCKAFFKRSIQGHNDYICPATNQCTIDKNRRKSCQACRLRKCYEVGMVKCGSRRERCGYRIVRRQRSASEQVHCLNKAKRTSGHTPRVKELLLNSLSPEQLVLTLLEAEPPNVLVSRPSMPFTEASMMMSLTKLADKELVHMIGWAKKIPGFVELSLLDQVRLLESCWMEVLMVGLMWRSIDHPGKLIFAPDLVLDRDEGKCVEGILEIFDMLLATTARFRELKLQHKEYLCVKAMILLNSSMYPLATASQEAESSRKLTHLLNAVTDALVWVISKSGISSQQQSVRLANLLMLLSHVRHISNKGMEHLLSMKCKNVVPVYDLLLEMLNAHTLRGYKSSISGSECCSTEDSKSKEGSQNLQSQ
UniProt P04386: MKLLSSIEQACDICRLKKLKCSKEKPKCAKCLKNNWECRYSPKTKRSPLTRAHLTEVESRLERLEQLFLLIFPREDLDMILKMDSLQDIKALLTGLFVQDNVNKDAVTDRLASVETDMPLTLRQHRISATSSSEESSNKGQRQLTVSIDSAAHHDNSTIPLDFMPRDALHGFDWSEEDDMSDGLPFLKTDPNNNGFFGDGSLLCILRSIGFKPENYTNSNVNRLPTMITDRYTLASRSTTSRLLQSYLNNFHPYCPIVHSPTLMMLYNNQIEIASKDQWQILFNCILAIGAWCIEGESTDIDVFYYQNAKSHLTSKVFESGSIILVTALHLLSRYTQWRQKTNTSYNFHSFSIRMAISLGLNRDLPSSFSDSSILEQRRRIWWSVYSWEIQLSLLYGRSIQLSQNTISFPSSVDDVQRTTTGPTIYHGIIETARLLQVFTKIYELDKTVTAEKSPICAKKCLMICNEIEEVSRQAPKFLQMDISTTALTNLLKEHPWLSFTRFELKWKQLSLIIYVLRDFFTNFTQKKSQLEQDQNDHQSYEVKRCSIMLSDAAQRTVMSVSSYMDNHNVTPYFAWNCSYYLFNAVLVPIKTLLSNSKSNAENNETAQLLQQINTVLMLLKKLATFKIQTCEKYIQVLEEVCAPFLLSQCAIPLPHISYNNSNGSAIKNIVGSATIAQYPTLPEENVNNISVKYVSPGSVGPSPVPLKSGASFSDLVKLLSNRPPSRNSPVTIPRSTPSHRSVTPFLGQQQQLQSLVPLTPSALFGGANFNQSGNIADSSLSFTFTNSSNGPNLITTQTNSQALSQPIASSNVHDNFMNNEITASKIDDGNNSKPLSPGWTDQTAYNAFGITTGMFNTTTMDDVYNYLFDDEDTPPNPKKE

Tests used:
GST-EC1 (sheep) = experiment: GST pull-down, SDS-PAGE and autoradiography
[1] = biological target: Trip 1/AD (TRIP1 homolog clone fused to the Gal4 activating domain) (human) (UniProt P62195); experiment: yeast two-hybrid in Y190, growth on Sc-His and β-galactosidase colony lift
[2] = biological target: EC1/AD (ovine clone EC1, MAD2 homolog, fused to the Gal4 activating domain, vector pGAD10) (sheep); experiment: as above

binding (GST-EC1 (sheep)): binds
Substance: [35S]mERβ (in vitro translated mouse estrogen receptor beta) (from UniProt O08537 46-530)

binding [1]: binds
Substance: hERα/BD (human estrogen receptor alpha fused to the Gal4 DNA binding domain) (from UniProt P04386 1-147; P03372 1-595)

binding [2]: binds
Substance: mERβ/BD (full-length mouse estrogen receptor beta fused to the Gal4 DNA binding domain, vector pGBT9) (from UniProt P04386 1-147; O08537 1-530)
